# Test results as given in patent US12516015B2 (AMALIVE LIMITED, priority 2009, dated 2026).
# Where two headings read alike, the source gives them in different places.
# Experiments:
# [1] = Evaporation
smiles,measurement,setting,value
NCCC[C@H](N)C(=O)O.O=C(O)Cc1ccccc1 [L-ornithine phenyl acetate],Results (crystalline form of precipitate),"Test 464, Controlled Cool (4° C.), MeOH: 50% H20",Form II
same,Results (crystalline form of precipitate),"Test 465, Controlled Cool (−21° C.), MeOH: 50% H20",Form II
same,Results (crystalline form of precipitate),"Test 475, Controlled Cool (4° C.), THF: 1% H20",No Solid
same,Results (crystalline form of precipitate),"Test 476, Controlled Cool (−21° C.), THF: 1% H20",No Solid
same,Results (crystalline form of precipitate),"Test 486, Controlled Cool (4° C.), THF: 3% H20",No Solid
same,Results (crystalline form of precipitate),"Test 487, Controlled Cool (−21° C.), THF: 3% H20",No Solid
same,Results (crystalline form of precipitate),"Test 497, Controlled Cool (4° C.), THF: 5% H20",No Solid
same,Results (crystalline form of precipitate),"Test 498, Controlled Cool (−21° C.), THF: 5% H20",No Solid
same,Results (crystalline form of precipitate),"Test 508, Controlled Cool (4° C.), butan-1-ol: 1% H20",No Solid
same,Results (crystalline form of precipitate),"Test 509, Controlled Cool (−21° C.), butan-1-ol: 1% H20",No Solid
same,Results (crystalline form of precipitate),"Test 519, Controlled Cool (4° C.), butan-1-ol: 3% H20",No Solid
same,Results (crystalline form of precipitate),"Test 520, Controlled Cool (−21° C.), butan-1-ol: 3% H20",No Solid
same,Results (crystalline form of precipitate),"Test 530, Controlled Cool (4° C.), butan-1-ol: 5% H20",No Solid
same,Results (crystalline form of precipitate),"Test 531, Controlled Cool (−21° C.), butan-1-ol: 5% H20",No Solid
same,Results (crystalline form),"[1]; Test 4, cyclohexanone",Form V
same,Results (crystalline form),"[1]; Test 15, ethanol/acetone (50:50)",Form II
same,Results (crystalline form),"[1]; Test 26, acetic acid",Form II
same,Results (crystalline form),"[1]; Test 37, 1-propanol",Form II
same,Results (crystalline form),"[1]; Test 48, dimethylcarbonate",Form II
same,Results (crystalline form),"[1]; Test 59, NMP",Form II
same,Results (crystalline form),"[1]; Test 70, etOAc/cyclohexane (1:2)",Form II
same,Results (crystalline form),"[1]; Test 81, etOAc/toluene (1:2)",Form II
same,Results (crystalline form),"[1]; Test 92, IPA/diisopropyl ether (1:2)",Form II
same,Results (crystalline form),"[1]; Test 103, DIPE",Form II
same,Results (crystalline form),"[1]; Test 114, nitromethane/water (20%)",Form II
same,Results (crystalline form),"[1]; Test 125, acetone/water (20%)",Form II
same,Results (crystalline form),"[1]; Test 136, 1,4 dioxane/water (20%)",Form II
same,Results (crystalline form),"[1]; Test 147, diethyl ether",Form II
same,Results (crystalline form),"[1]; Test 158, ethylene glycol",No Solid
same,Results (crystalline form),"[1]; Test 169, meOAc/water (20%)",Form II
same,Results (crystalline form),"[1]; Test 180, meOH/acetone (50:50)",Form II
same,Results (crystalline form),"[1]; Test 191, DMF",Form II
same,Results (crystalline form of precipitate),"[1]; Test 202, solvent 2-butanol",Form II
same,Results (crystalline form of precipitate),"[1]; Test 213, solvent cumene",Form II
same,Results (crystalline form of precipitate),"[1]; Test 224, solvent ethyl formate",Form II
same,Results (crystalline form of precipitate),"[1]; Test 235, solvent isobutyl acetate",No Solid
same,Results (crystalline form of precipitate),"[1]; Test 246, solvent 3-methyl-1-butanol",Form II
same,Results (crystalline form of precipitate),"[1]; Test 257, solvent anisole",Form II
same,Results (crystalline form of precipitate),"[1]; Test 268, solvent IPA/isopropyl acetate (1:2)",Form II
same,Results (crystalline form of precipitate),"[1]; Test 279, solvent EtOH: 1% H20",No Solid
same,Results (crystalline form of precipitate),"[1]; Test 290, solvent EtOH: 3% H20",No Solid
same,Results (crystalline form of precipitate),"[1]; Test 301, solvent EtOH: 5% H20",Form II
same,Results (crystalline form of precipitate),"[1]; Test 312, solvent IPA: 1% H20",No Solid
same,Results (crystalline form of precipitate),"[1]; Test 323, solvent IPA: 3% H20",No Solid
same,Results (crystalline form of precipitate),"[1]; Test 334, solvent IPA: 5% H20",Form II
same,Results (crystalline form of precipitate),"[1]; Test 345, solvent ACN: 1% H20",Form II
same,Results (crystalline form of precipitate),"[1]; Test 356, solvent ACN: 6% H20",Form II
same,Results (crystalline form of precipitate),"[1]; Test 367, solvent ACN: 12% H20",Form II
same,Results (crystalline form of precipitate),"[1]; Test 378, solvent DMF: 5% H20",No Solid
same,Results (crystalline form of precipitate),"[1]; Test 389, solvent DMF: 15% H20",No Solid
same,Results (crystalline form of precipitate),"[1]; Test 400, solvent DMF: 30% H20",Form II
same,Results (crystalline form of precipitate),"[1]; Test 411, 1,4-dioxane: 1% H20",No Solid
same,Results (crystalline form of precipitate),"[1]; Test 422, 1,4-dioxane: 3% H20",Form II
same,Results (crystalline form of precipitate),"[1]; Test 433, 1,4-dioxane: 10% H20",Form II
same,Results (crystalline form of precipitate),"[1]; Test 444, MeOH: 5% H20",Form II
same,Results (crystalline form of precipitate),"[1]; Test 455, MeOH: 20% H20",Form II
same,Results (crystalline form of precipitate),"[1]; Test 466, MeOH: 50% H20",No Solid
same,Results (crystalline form of precipitate),"[1]; Test 477, THF: 1% H20",Form II
same,Results (crystalline form of precipitate),"[1]; Test 488, THF: 3% H20",No Solid
same,Results (crystalline form of precipitate),"[1]; Test 499, THF: 5% H20",Form II
same,Results (crystalline form of precipitate),"[1]; Test 510, butan-1-ol: 1% H20",Form II
same,Results (crystalline form of precipitate),"[1]; Test 521, butan-1-ol: 3% H20",Form II
same,Results (crystalline form of precipitate),"[1]; Test 532, butan-1-ol: 5% H20",Form II
same,Results (crystalline form of precipitate),"[1]; Test 541, 1,4-dioxane",Form I/II
same,Results (crystalline form of precipitate),"[1]; Test 544, 1-butanol",Form I/II
same,Results (crystalline form of precipitate),"[1]; Test 547, ethanol",Form II
same,Results (crystalline form of precipitate),"[1]; Test 550, acetone",Form II
same,Results (crystalline form of precipitate),"[1]; Test 553, benzonitrile",Form II
same,Results (crystalline form of precipitate),"[1]; Test 556, cyclohexane",Form II
same,Results (crystalline form of precipitate),"[1]; Test 559, DCM",Form II
same,Results (crystalline form of precipitate),"[1]; Test 562, DMSO",Form II/II
same,Results (crystalline form of precipitate),"[1]; Test 565, EtOAc",Form II
same,Results (crystalline form of precipitate),"[1]; Test 568, Heptane",Form I/II
same,Results (crystalline form of precipitate),"[1]; Test 571, IPA",Form I/II
same,Results (crystalline form of precipitate),"[1]; Test 574, IPA: Water (1%)",Form II
same,Results (crystalline form of precipitate),"[1]; Test 577, MeCN",Form II
same,Results (crystalline form of precipitate),"[1]; Test 580, MeCN: Water (1%)",Form I/II
same,Results (crystalline form of precipitate),"[1]; Test 583, MEK",Form I/II
same,Results (crystalline form of precipitate),"[1]; Test 586, MeOAc",Form II
same,Results (crystalline form of precipitate),"[1]; Test 589, MeOH",Form I/II
same,Results (crystalline form of precipitate),"[1]; Test 592, MIBK",Form II
same,Results (crystalline form of precipitate),"[1]; Test 595, Nitromethane",Form II
same,Results (crystalline form of precipitate),"[1]; Test 598, TBME",Form II
same,Results (crystalline form of precipitate),"[1]; Test 601, THF",Form II
same,Results (crystalline form of precipitate),"[1]; Test 604, THF: water (1%)",Form I/II
same,Results (crystalline form of precipitate),"[1]; Test 607, toluene",Form II
same,Results (crystalline form of precipitate),"[1]; Test 610, water",Form I/II
